# Experimental data as given in the supplement of paper PMC5949888.
# Most values lie at the floor of the assay. Slopes are relative: functional sequences can read slightly below zero.
# System: Saccharomyces cerevisiae PS128 hsf1 delta, HSF1(1-493) fusion
# Assay: growth estimate (transactivation domain function in HSF1 fusion, heat-shock survival) (a.u. (slope of normalised read count over time)); higher = stronger growth at 37°C, i.e. more transactivation activity
# Details: library: random library
row,Substance,growth estimate
1,IPLADGLEVQPGMECSRSWN,< -0.25
2,IPLLPSSREPSGSFTL,< -0.25
3,IPLSGTYSGRDA,< -0.25
4,IPPANRPTPDTLYVLVQPRF,< -0.25
5,IPPFPAMQKRRSLSHTKFGA,< -0.25
6,IPPSPLRLSKSLVMSFYLGE,< -0.25
7,IPRETTWGSGRL,-0.193
8,IPRSVSY,< -0.25
9,IPRTEKLRSNGSLPGPTDFE,< -0.25
10,IPSEEASSTA,< -0.25
11,IPSH,< -0.25
12,IPSLDMSGAIGNIVCVCRFR,< -0.25
13,IPSPYLGRLQLREF,-0.166
14,IPSRTISVCPGCDAGRASST,< -0.25
15,IPSSVLRGACGPSKVFRFWW,< -0.25
16,IPTGPHQPAPLVVRA,< -0.25
17,IPTSVASRIPTLGKQIRGLM,< -0.25
18,IPTTSAAAEKGFF,< -0.25
19,IPVLDE,< -0.25
20,IQDRRINIKGEVTIECPDRL,< -0.25
21,IQDS,< -0.25
22,IQFDEILVVSILSVGSADVE,< -0.25
23,IQFQPWILAGGRFAG,< -0.25
24,IQGDVTGI,< -0.25
25,IQGEFLVGAKDGLSVERKTS,< -0.25

row,Substance,growth estimate
1,IQGPYEHNHSTRYTLLPISC,< -0.25
2,IQLRDGDRTKV,< -0.25
3,IQLVIWHIPSAVQRRGRPTP,< -0.25
4,IQRKPDVHREVRIPAVTSRA,< -0.25
5,IQTLLWAAHYRRCP,< -0.25
6,IQVIGARHLYTGEHDVGNNT,< -0.25
7,IQWNQPLPQEQHCGSLCL,< -0.25
8,IQYLLNPLATSYEHMRLVIC,< -0.25
9,IQYPMLFVVMPMRVSGHLLP,< -0.25
10,IRAWPWD,< -0.25
11,IRDFRLGRSYQYH,< -0.25
12,IRDQNRSRKLWSSRADLEHG,< -0.25
13,IREQSTV,-0.248
14,IRERGVVLLLRTNYSRFGIR,< -0.25
15,IRFKMQIGAR,< -0.25
16,IRFVGIIMRVR,< -0.25
17,IRFWDSAIEKNTTTVSWGRT,< -0.25
18,IRG,< -0.25
19,IRGESSTEVNGDPRFSSHSP,< -0.25
20,IRGLTQQGTVDNLSMLLSIR,-0.237
21,IRGQVGAST,< -0.25
22,IRGVSQASSGGTPLMTIVAC,< -0.25
23,IRIQFDK,< -0.25
24,IRITATGRFINIASEVESGR,< -0.25
25,IRLCPRPAANPICTFLST,< -0.25

row,Substance,growth estimate
1,IRLDLATAFTSGRRTLSATI,< -0.25
2,IRLLRPP,< -0.25
3,IRLTRV,< -0.25
4,IRMCLFVVNQSPEAEGCEGG,< -0.25
5,IRMVLVMRSIKMWIICLELA,< -0.25
6,IRN,< -0.25
7,IRNVRVACAPRRDEGSIDIT,< -0.25
8,IRPA,< -0.25
9,IRPLGNRQR,< -0.25
10,IRQISSARRLINRPDNYVII,-0.246
11,IRRGAGKNPRDVGLQC,< -0.25
12,IRRKDSIPTGGSDQHGPPRK,< -0.25
13,IRRRFY,< -0.25
14,IRSH,< -0.25
15,IRSRSGAG,< -0.25
16,IRSTQPPN,< -0.25
17,IRT,< -0.25
18,IRTL,-0.246
19,IRTMESGKTNTSAYNQRISA,< -0.25
20,IRTNEHPKPLSQMCEHMAHP,< -0.25
21,IRTNRESCVMRLTRIRVR,< -0.25
22,IRTSIGGSSRPLVKSGGWRT,< -0.25
23,IRVGRYGKRAIEPCSLLQRV,-0.246
24,IRVI,< -0.25
25,IRVK,< -0.25

# In another format: results already given
row	Substance	growth estimate
19	IRTMESGKTNTSAYNQRISA	< -0.25
20	IRTNEHPKPLSQMCEHMAHP	< -0.25
21	IRTNRESCVMRLTRIRVR	< -0.25
22	IRTSIGGSSRPLVKSGGWRT	< -0.25

# Further records follow.

row,Substance,growth estimate
1,IRVLCWCL,< -0.25
2,IRVNSPDPGLR,< -0.25
3,IRVQRCQSIGRLGARISAYA,< -0.25
4,IRVRARVGYGVLGGRYRGLS,< -0.25
5,IRVSCHPSFFRFHALASTSR,< -0.25
6,IRVTCIRKSVVQGVGKS,< -0.25
7,IRVTGSVGGISLLAALYDSA,< -0.25
8,IRWYASVGRTPAKSSEPRS,< -0.25
9,IRYPPLT,0.0142
10,IRYPSDPVFLCLNVSKGTTD,< -0.25
11,ISACS,< -0.25
12,ISAITGEEVEARCDRSLLYR,< -0.25
13,ISCEQGKPKASSCTLGVAVV,< -0.25
14,ISCYHLLRHLLKVAFSDNYR,< -0.25
15,ISD,< -0.25
16,ISEDLGHFMGLDQEVERYVD,-0.182
17,ISEGAPGAVQRRVSNRALYA,< -0.25
18,ISESPGTCC,< -0.25
19,ISFLAIVMSFSGIQQFAVVH,< -0.25
20,ISFS,< -0.25
21,ISG,< -0.25
22,ISGLSGLPRYLRDHVCALAV,< -0.25
23,ISGNSDSFL,< -0.25
24,ISIPRSARQF,< -0.25
25,ISKAHRSWWLGTRGGVCRGQ,-0.229

row,Substance,growth estimate
1,ISLEGLPSTP,< -0.25
2,ISLIDSKCMPAATKVLSLLD,< -0.25
3,ISLRF,< -0.25
4,ISPCDGGT,< -0.25
5,ISPKVVARTGRY,< -0.25
6,ISPSFQDYVVWSLHYQCREV,< -0.25
7,ISRAGEPTS,< -0.25
8,ISRGKARVHLCYCTYNPSDA,< -0.25
9,ISRGSICASVWDTTFRPSVI,< -0.25
10,ISRPHSTEVM,< -0.25
11,ISRPTGQLTPSRSQRIASCN,< -0.25
12,ISSLQAPRFIIGAPDSGFAY,< -0.25
13,ISVIL,< -0.25
14,ISWFGLSTRVRMSMLSLARV,< -0.25
15,ISWHREVLSASTFVNATPAS,< -0.25
16,ISWNLQIYTLAV,< -0.25
17,ITAAMEGGGAPRLYCALETR,< -0.25
18,ITCLNAR,< -0.25
19,ITERIRVDLLPFGTGLLAFI,< -0.25
20,ITFRGYWAHLSDQPGHEFHG,-0.137
21,ITGEASPSRLMSVERMCGWS,< -0.25
22,ITGRDVRPCGFSKERGSITA,< -0.25
23,ITHGAAPFRIMGFNIYLQTL,< -0.25
24,ITISRSSQFALNTRHRQIPA,< -0.25
25,ITKSAVS,< -0.25

row,Substance,growth estimate
1,ITLCSSPPVRL,< -0.25
2,ITLTTRRRRRRWRVSQ,< -0.25
3,ITLVGSELVLGAKVIPALLG,< -0.25
4,ITM,< -0.25
5,ITNKPRFSYRAELRLPFVPC,< -0.25
6,ITPGRCFYLGLSTAKGRPLS,< -0.25
7,ITRELDSTCISNF,< -0.25
8,ITRFA,< -0.25
9,ITRRSGFSISR,< -0.25
10,ITSAKGP,< -0.25
11,ITSNALHNR,< -0.25
12,ITSPHRHDNTTF,< -0.25
13,ITSVFVSIGHEWLSSSYGIC,< -0.25
14,IVAGFCS,< -0.25
15,IVAL,< -0.25
16,IVAVTRSDVLNQGDPGTPIQ,< -0.25
17,IVCALGESREGTGFSCACPP,< -0.25
18,IVCSPTAFS,-0.201
19,IVDSNEESKLRSSYRASACR,< -0.25
20,IVFVVGTTISVVRTVLRSEV,< -0.25
21,IVGFGLSYARVYIGRQLTP,< -0.25
22,IVGFGRPMDRMVCSRMNGGN,< -0.25
23,IVGRGDRVGLAGETIRITLG,< -0.25
24,IVHADIIAGKACTTLYLYTK,< -0.25
25,IVIAAGLLRT,< -0.25

# Part of the list above, with bars between the fields:
row | Substance | growth estimate
3 | IQLVIWHIPSAVQRRGRPTP | < -0.25
9 | IQYPMLFVVMPMRVSGHLLP | < -0.25
25 | ISKAHRSWWLGTRGGVCRGQ | -0.229
7 | ISRAGEPTS | < -0.25
16 | ISWNLQIYTLAV | < -0.25
7 | ITRELDSTCISNF | < -0.25

# Some of the entries so far, tab-delimited:
row	Substance	growth estimate
3	ITLVGSELVLGAKVIPALLG	< -0.25
4	ITM	< -0.25
5	ITNKPRFSYRAELRLPFVPC	< -0.25
6	ITPGRCFYLGLSTAKGRPLS	< -0.25

# Further results follow:

row,Substance,growth estimate
1,IVKNVARLQEPSSQI,< -0.25
2,IVKVHH,< -0.25
3,IVLFRVMPRWQSTAAHDGIQ,< -0.25
4,IVLNPGN,< -0.25
5,IVLPIWSEDVLNSKMNEPG,< -0.25
6,IVNWDHPVGGYFADLLECQP,-0.174
7,IVPRKRVRGILESRV,-0.245
8,IVPRRTPREPLRAPLKTADL,< -0.25
9,IVPTKCS,< -0.25
10,IVPVLH,< -0.25
11,IVRTRRLRTLLILSRQSLRP,< -0.25
12,IVSINGATGAGGSARTAGSS,< -0.25
13,IVTFPSDAGQGNRPWT,< -0.25
14,IVTLTRLRG,< -0.25
15,IVTPGIIRVVENQPCSNSSE,< -0.25
16,IVVHLDFVVDCFSFPC,< -0.25
17,IVVPPSPAI,< -0.25
18,IVWCKVTPSIHSGNVTLCLS,< -0.25
19,IVYTDASRSVSRRVSGSLSS,< -0.25
20,IVYYLIGKSEWTLRGESVH,< -0.25
21,IWFIVRCRLALTHDEHAFCM,< -0.25
22,IWFRREYRMGSMDRIETSQH,-0.246
23,IWGHCKMRQSVSQVSLSRIT,< -0.25
24,IWKPRGRSSETNGCNRERHI,< -0.25
25,IWKVTARVNLES,< -0.25

row,Substance,growth estimate
1,IWNAVVSLFCSSRPGT,< -0.25
2,IWPEDRYVSGVYIAPTTLVR,< -0.25
3,IWRNRTA,< -0.25
4,IWS,< -0.25
5,IWSRGILMVLTRRCPVLPRA,< -0.25
6,IWSVRGGVMRTSEADEAEGK,< -0.25
7,IWVGPYKQYTGD,0.0194
8,IWVPSDLAVLRPASWLPSRC,< -0.25
9,IYALK,< -0.25
10,IYCPWERTI,< -0.25
11,IYEP,< -0.25
12,IYESWYVLG,< -0.25
13,IYGLRGCQVCKDIKGVPSAR,< -0.25
14,IYLRTNPKSPVHPSYRRWLT,-0.173
15,IYLVRMR,< -0.25
16,IYMVDCLIACSAPRSFAGSF,< -0.25
17,IYP,< -0.25
18,IYPRITLGSRPD,< -0.25
19,IYQ,< -0.25
20,IYQVLLGGVV,< -0.25
21,IYRRLTA,< -0.25
22,IYRSRSSDSICVSQRLFRRY,< -0.25
23,IYRTYNHFSRWS,< -0.25
24,IYVCKVGWHGRK,< -0.25
25,IYWGIVPVITAKVLDVPGQA,< -0.25
